Data published in patent publication US9796660 (dated 2017).

Assay: general procedure: solution-phase peptide synthesis; EDCI/HOBt/DIEA; EDCI/DMAP

| Substance | step yield (coupling step) [% yield] | step yield (late stage modification step) [% yield] |
| --- | --- | --- |
| Boc-(D)Ala-(Et)ACHA-(D)Ala-(Et)ACHA-(D)Ala-(Et)ACHA-OBn | 92 | – |
| Boc-(D)Ala-(Et)ACHA-(D)Ala-(Et)ACHA-OBn | 90 | – |
| Boc-(Et)ACHA-(D)Phe-(Et)ACHA-(D)Phe-OMe | – | 80 |
| NO2-(Et)ACHA-(D)Phe-(Et)ACHA-(D)Phe-OMe | 80 | – |
